# Where a name gives a salt, the structure may show the parent alone. The list shows a part of the results. Most values lie within the scatter of the assay; repeated measurements hardly agree.
# Test system: MDA-MB-468
# Assay: phospho-S6 immunofluorescence (DAPI-normalised), per-plate z-score; higher = higher phospho-S6 signal (less pathway suppression)
# Settings: 24 h
# Description: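 GPCR-targeted compound library (MedChemExpress HY-L006) tested on MDA-MB-468 PTEN-null TNBC cells in 384-well plates at 0.1, 1 or 10 uM, combined with vehicle, GDC0941 450 nM or lapatinib 1 uM, for 24 h. Phospho-S6 (S240/244) immunofluorescence normalised to DAPI and expressed as a per-plate z-score; values are the mean of biological triplicates.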
# [1] = compound 0.1 µM, co-treatment: GDC0941 450 nM
# [2] = compound 0.1 µM, co-treatment: lapatinib 1 uM
# [3] = compound 0.1 µM, co-treatment: vehicle
# [4] = compound 1 µM, co-treatment: GDC0941 450 nM
# [5] = compound 1 µM, co-treatment: lapatinib 1 uM
# [6] = compound 1 µM, co-treatment: vehicle
# [7] = compound 10 µM, co-treatment: GDC0941 450 nM
# [8] = compound 10 µM, co-treatment: lapatinib 1 uM
# [9] = compound 10 µM, co-treatment: vehicle
SMILES,phospho-S6 immunofluorescence (z-score) [1],phospho-S6 immunofluorescence (z-score) [2],phospho-S6 immunofluorescence (z-score) [3],phospho-S6 immunofluorescence (z-score) [4],phospho-S6 immunofluorescence (z-score) [5],phospho-S6 immunofluorescence (z-score) [6],phospho-S6 immunofluorescence (z-score) [7],phospho-S6 immunofluorescence (z-score) [8],phospho-S6 immunofluorescence (z-score) [9]
Clc1cccc(COc2cncc(N3CCNCC3)n2)c1,-0.03,0.4,0.51,-0.01,0,0.21,-1.03,-4.09,0.21
COc1ccccc1N1CCN(CCN(C(=O)C2CCCCC2)c2ccccn2)CC1,-0.61,-1.61,-0.41,-0.45,1.19,-1.94,-0.49,0.26,-0.79
Clc1ccc2c(c1)CCc1cccnc1C2=C1CCNCC1 [Desloratadine],-1.09,-0.56,-0.53,0.29,-0.88,0.04,-0.48,-1.96,0.51
CC(C)(O)c1ccccc1CC[C@@H](SCC1(CC(=O)O)CC1)c1cccc(/C=C/c2ccc3ccc(Cl)cc3n2)c1 [Montelukast (sodium)],0.87,0.59,1.13,0.16,0.02,1.25,0.45,0.97,1.39
CC(C)(Cc1nc(-c2ccc(O)cn2)no1)C(=O)NC1=C(C(=O)O)CCCC1,1.13,1.19,1.12,1.16,0.92,1.09,0.73,0.37,1.12
C[C@@H]1C[C@H]2[C@@H]3CCC4=CC(=O)C=C[C@]4(C)[C@@]3(F)[C@@H](O)C[C@]2(C)[C@@]1(O)C(=O)CO [Dexamethasone],-1.21,0.85,0.52,-0.08,0.78,1,0.1,0.34,1.02
O=C(c1ccc(F)cc1)C1CCN(CCn2c(=O)[nH]c3ccccc3c2=O)CC1 [Ketanserin],-1,-0.95,0.55,-0.53,-0.24,0.55,-0.64,-0.02,-0.85
CC[C@@H]1C(=O)OC[C@@H]1Cc1cncn1C [Pilocarpine (Hydrochloride)],-0.43,-0.86,-1.24,-0.26,0.32,-0.62,-0.79,-0.13,-0.68
CN(C)C(=O)C(CCN1CCC(O)(c2ccc(Cl)cc2)CC1)(c1ccccc1)c1ccccc1 [Loperamide (hydrochloride)],0.38,0.48,1.3,0.49,-0.68,1.01,-1.31,-3.22,-0.37
COc1ccccc1N1CCN(CCCCN2C(=O)c3ccccc3C2=O)CC1 [NAN-190 (hydrobromide)],0.5,-0.69,0.16,0.06,0.45,0.78,0.76,-0.29,0.19
CC(=O)Oc1cc2c(s1)CCN(C(C(=O)C1CC1)c1ccccc1F)C2 (stereo unspecified) [Prasugrel],-1.41,-0.39,-1.13,-1.74,0.94,-0.88,-1.29,1.92,-0.48
O=C(Nc1ccc(Cl)cc1CN1C(=O)c2ccccc2C1=O)c1ccccc1O,-0.35,0.09,-0.47,0.12,1.63,-0.15,-1.83,-0.3,-0.57
OCCOCCN1CCN(C(c2ccccc2)c2ccc(Cl)cc2)CC1 (stereo unspecified) [Hydroxyzine (dihydrochloride)],0.33,-1.21,-1.4,0.51,0.11,0.41,0.45,-0.69,0.24
CC[C@H](C)[C@@H]1NC(=O)[C@H](Cc2ccc(O)cc2)NC(=O)[C@@H](N)CSSC[C@@H](C(=O)N2CCC[C@H]2C(=O)N[C@@H](CC(C)C)C(=O)NCC(N)=O)NC(=O)[C@H](CC(N)=O)NC(=O)[C@H](CCC(N)=O)NC1=O [Oxytocin (acetate)],-1.02,-1.04,-1.6,-1.21,0.01,0.33,-0.77,-0.07,-0.87
CC(C)NCC(O)c1ccc(O)c(O)c1 (stereo unspecified) [Isoprenaline (hydrochloride)],0.91,2.52,1.15,0.47,2.64,1.48,0.63,2.74,1.65
COc1ccc(S(=O)(=O)Nc2c(C)cc(C)cc2C)cc1,-0.84,-1,-0.96,-0.39,-0.12,-1.88,0.04,-0.37,-1.05
Cc1nc2ccc(NC(=O)Nc3ccnc4cccnc34)cc2o1,0.46,-0.17,0.65,0.19,-0.21,0.1,0.6,-1.8,0.79
C[C@@H](NCCCc1cccc(C(F)(F)F)c1)c1cccc2ccccc12 [Cinacalcet (hydrochloride)],-1.53,0.01,-0.68,-0.74,-0.53,-0.7,-5.88,-11.2,-9.18
CC(C)(N)C(=O)N[C@H](COCc1ccccc1)C(=O)N1CCC2(CC1)CN(S(C)(=O)=O)c1ccccc12 [Ibutamoren (Mesylate)],-0.99,-0.2,-0.08,-0.99,-1.24,-0.21,-2.77,-7.75,-5.38
Clc1ccc(CCCOCCCN2CCCCC2)cc1 [Pitolisant (hydrochloride)],-0.07,-0.06,-0.26,0.32,-0.29,0.61,0.75,-0.69,-0.12

SMILES,phospho-S6 immunofluorescence (z-score) [1],phospho-S6 immunofluorescence (z-score) [2],phospho-S6 immunofluorescence (z-score) [3],phospho-S6 immunofluorescence (z-score) [4],phospho-S6 immunofluorescence (z-score) [5],phospho-S6 immunofluorescence (z-score) [6],phospho-S6 immunofluorescence (z-score) [7],phospho-S6 immunofluorescence (z-score) [8],phospho-S6 immunofluorescence (z-score) [9]
C[C@@H](O[C@H]1OCCN(Cc2n[nH]c(=O)[nH]2)[C@H]1c1ccc(F)cc1)c1cc(C(F)(F)F)cc(C(F)(F)F)c1 [Aprepitant],0.66,1.18,0.31,0.64,0.85,0.62,-1.22,-1.02,0.64
NC1=NCC2c3ccccc3Cc3ccccc3N12 (stereo unspecified) [Epinastine],1.62,1.33,-0.5,1.49,1.11,0.14,-0.05,-0.81,0.35
Cc1noc(-c2ccc(-c3ccc(CC(=O)O)cc3)cc2)c1NC(=O)O[C@H](C)c1ccccc1 [AM095 (free acid)],1.27,0.13,-0.07,1.67,0.73,0.75,1.08,0.37,0.82
N=C(N)NC(=O)Cc1c(Cl)cccc1Cl [Guanfacine (hydrochloride)],0.11,-0.04,0.68,0.57,0.13,-0.03,0.64,0.23,0.38
C=C[C@@]1(C)CC(=O)[C@]2(O)[C@@]3(C)[C@@H](O)CCC(C)(C)[C@@H]3[C@H](O)[C@H](OC(C)=O)[C@@]2(C)O1 [Forskolin],0.08,-0.63,-0.37,1.12,2.09,0.28,1.82,2.65,0.23
CN1CCN(CCCN2c3ccccc3Sc3ccc(C(F)(F)F)cc32)CC1 [Trifluoperazine (dihydrochloride)],1.14,-0.57,0.49,1.46,-2.17,0.64,-4.47,-5.54,-4.02
CN(C)CCCN1c2ccccc2CCc2ccc(Cl)cc21 [Clomipramine (hydrochloride)],-0.29,-0.7,-1.47,-0.08,-1.69,-2.24,-1.98,-3.26,-1.14
CC[C@H](NC(=O)c1c(C)c(-c2ccccc2)nc2ccccc12)c1ccccc1,-0.97,-0.8,-0.49,-1.97,-2.56,0.14,-4.55,-3.25,-1.64
OC(CCN1CCCCC1)(c1ccccc1)C1CC2C=CC1C2 (stereo unspecified) [Biperiden (Hydrochloride)],-0.99,-0.95,-1.42,-1.1,-1.09,-3.46,-1.68,-0.97,-1.56
c1ccc2c(CC3=NCCN3)cccc2c1 [Naphazoline (hydrochloride)],0.43,-0.77,0.38,-0.65,-0.81,-0.06,-0.78,0.03,0.05
O=C1O[C@]2(CC[C@H](C(=O)Nc3ccn(-c4ccccc4F)n3)CC2)c2cnccc21,-0.22,-0.1,0.06,0.1,-0.18,0,0.73,-0.47,0.3
CNS(=O)(=O)Cc1ccc2[nH]cc(CCN(C)C)c2c1 [Sumatriptan (succinate)],-0.9,-0.57,1.14,-0.11,-1.03,0.57,0.01,0.48,0.55
CC(C)(C)NC[C@H](O)COc1nsnc1N1CCOCC1 [(S)-Timolol (Maleate)],-0.46,0.26,-0.82,-0.24,-0.08,-1.49,-0.17,0.33,-0.06
C(=C\c1ccccc1)/CN1CCN(C(c2ccccc2)c2ccccc2)CC1 [Cinnarizine],0.62,0.52,0.93,0.56,-0.82,1.77,0.86,0.22,1.3
CN1CCC[C@@H]1CCO[C@](C)(c1ccccc1)c1ccc(Cl)cc1 [Clemastine (fumarate)],0.32,1.25,1.3,1.54,0.67,0.82,0.73,-3.01,1.46
CN(C)CC[C@@H](c1ccc(Cl)cc1)c1ccccn1 [Dexchlorpheniramine (maleate)],-0.31,-1.72,-0.71,-0.5,-1.82,-0.44,0.61,-0.08,-0.33
CN(C)CCN(Cc1ccccc1)c1ccccn1 [Tripelennamine (hydrochloride)],-0.85,-0.39,-1.43,-0.75,0.37,2.65,-0.07,-0.31,-0.41
CCN(CC)Cc1ccc(C(=O)N(CCc2ccccc2OC)[C@@H]2CCNC2)cc1,-0.92,-0.8,-0.3,-0.97,-0.27,-1.11,0.19,0.1,0.12
CN1[C@@H]2CC[C@H]1C[C@@H](OC(c1ccccc1)c1ccccc1)C2 [Benztropine (mesylate)],0.11,-0.73,0.17,0.04,-0.16,-0.44,1.67,-1.69,0.29

# Quoted from the listing.
# phospho-S6 immunofluorescence (z-score) [7], `CC(C)(O)c1ccccc1CC[C@@H](SCC1(CC(=O)O)CC1)c1cccc(/C=C/c2ccc3ccc(Cl)cc3n2)c1` [Montelukast (sodium)] is entered as 0.45
# phospho-S6 immunofluorescence (z-score) [5], `O=C(Nc1ccc(Cl)cc1CN1C(=O)c2ccccc2C1=O)c1ccccc1O` is entered as 1.63

# From the supplement of paper PMC7411640
